{"source": "patent US8119364B2", "about": "“Methods for generating analogs of coenzyme A” (The Regents of the University of California, priority 2005, dated 2012)", "data": [{"system": "CoA biosynthetic enzymes (CoAA/D/E), PPTase Sfp and apo-ACP", "conditions": "apo-ACP 8505 Da, MALDI-MS", "units": {"mass change of ACP on formation of crypto-carrier protein": "mass units"}, "values": [{"smiles": "CN(C)c1ccc2c(CC(=O)NCCOCCOCCOCCOCCOCCOCCOCCOCCOCCOCCNC(=O)[C@H](O)C(C)(C)CO)cc(=O)oc2c1", "note": "[Compound 18]", "mass change of ACP on formation of crypto-carrier protein": 916}, {"smiles": "CN(C)c1ccc2c(CC(=O)NCCCCCCNC(=O)CCNC(=O)[C@H](O)C(C)(C)CO)cc(=O)oc2c1", "note": "[Compound 13]", "mass change of ACP on formation of crypto-carrier protein": 604}, {"smiles": "CN(C)c1ccc2c(CC(=O)NCCOCCOCCNC(=O)[C@H](O)C(C)(C)CO)cc(=O)oc2c1", "note": "[Compound 17]", "mass change of ACP on formation of crypto-carrier protein": 559}]}]}
